Laboratory results from the supplement of paper PMC10849652.
Some of the results follow. Residues, ends and D or L forms follow the SMILES beside them. *: point of attachment. Cbz = O=C(OCc1ccccc1)*

Protein sequences, listed by entry. Tags and fused reporters are not part of them. Lines headed by an entry give the natural chain unless they say otherwise; changes in a name come on top.
UniProt P78509: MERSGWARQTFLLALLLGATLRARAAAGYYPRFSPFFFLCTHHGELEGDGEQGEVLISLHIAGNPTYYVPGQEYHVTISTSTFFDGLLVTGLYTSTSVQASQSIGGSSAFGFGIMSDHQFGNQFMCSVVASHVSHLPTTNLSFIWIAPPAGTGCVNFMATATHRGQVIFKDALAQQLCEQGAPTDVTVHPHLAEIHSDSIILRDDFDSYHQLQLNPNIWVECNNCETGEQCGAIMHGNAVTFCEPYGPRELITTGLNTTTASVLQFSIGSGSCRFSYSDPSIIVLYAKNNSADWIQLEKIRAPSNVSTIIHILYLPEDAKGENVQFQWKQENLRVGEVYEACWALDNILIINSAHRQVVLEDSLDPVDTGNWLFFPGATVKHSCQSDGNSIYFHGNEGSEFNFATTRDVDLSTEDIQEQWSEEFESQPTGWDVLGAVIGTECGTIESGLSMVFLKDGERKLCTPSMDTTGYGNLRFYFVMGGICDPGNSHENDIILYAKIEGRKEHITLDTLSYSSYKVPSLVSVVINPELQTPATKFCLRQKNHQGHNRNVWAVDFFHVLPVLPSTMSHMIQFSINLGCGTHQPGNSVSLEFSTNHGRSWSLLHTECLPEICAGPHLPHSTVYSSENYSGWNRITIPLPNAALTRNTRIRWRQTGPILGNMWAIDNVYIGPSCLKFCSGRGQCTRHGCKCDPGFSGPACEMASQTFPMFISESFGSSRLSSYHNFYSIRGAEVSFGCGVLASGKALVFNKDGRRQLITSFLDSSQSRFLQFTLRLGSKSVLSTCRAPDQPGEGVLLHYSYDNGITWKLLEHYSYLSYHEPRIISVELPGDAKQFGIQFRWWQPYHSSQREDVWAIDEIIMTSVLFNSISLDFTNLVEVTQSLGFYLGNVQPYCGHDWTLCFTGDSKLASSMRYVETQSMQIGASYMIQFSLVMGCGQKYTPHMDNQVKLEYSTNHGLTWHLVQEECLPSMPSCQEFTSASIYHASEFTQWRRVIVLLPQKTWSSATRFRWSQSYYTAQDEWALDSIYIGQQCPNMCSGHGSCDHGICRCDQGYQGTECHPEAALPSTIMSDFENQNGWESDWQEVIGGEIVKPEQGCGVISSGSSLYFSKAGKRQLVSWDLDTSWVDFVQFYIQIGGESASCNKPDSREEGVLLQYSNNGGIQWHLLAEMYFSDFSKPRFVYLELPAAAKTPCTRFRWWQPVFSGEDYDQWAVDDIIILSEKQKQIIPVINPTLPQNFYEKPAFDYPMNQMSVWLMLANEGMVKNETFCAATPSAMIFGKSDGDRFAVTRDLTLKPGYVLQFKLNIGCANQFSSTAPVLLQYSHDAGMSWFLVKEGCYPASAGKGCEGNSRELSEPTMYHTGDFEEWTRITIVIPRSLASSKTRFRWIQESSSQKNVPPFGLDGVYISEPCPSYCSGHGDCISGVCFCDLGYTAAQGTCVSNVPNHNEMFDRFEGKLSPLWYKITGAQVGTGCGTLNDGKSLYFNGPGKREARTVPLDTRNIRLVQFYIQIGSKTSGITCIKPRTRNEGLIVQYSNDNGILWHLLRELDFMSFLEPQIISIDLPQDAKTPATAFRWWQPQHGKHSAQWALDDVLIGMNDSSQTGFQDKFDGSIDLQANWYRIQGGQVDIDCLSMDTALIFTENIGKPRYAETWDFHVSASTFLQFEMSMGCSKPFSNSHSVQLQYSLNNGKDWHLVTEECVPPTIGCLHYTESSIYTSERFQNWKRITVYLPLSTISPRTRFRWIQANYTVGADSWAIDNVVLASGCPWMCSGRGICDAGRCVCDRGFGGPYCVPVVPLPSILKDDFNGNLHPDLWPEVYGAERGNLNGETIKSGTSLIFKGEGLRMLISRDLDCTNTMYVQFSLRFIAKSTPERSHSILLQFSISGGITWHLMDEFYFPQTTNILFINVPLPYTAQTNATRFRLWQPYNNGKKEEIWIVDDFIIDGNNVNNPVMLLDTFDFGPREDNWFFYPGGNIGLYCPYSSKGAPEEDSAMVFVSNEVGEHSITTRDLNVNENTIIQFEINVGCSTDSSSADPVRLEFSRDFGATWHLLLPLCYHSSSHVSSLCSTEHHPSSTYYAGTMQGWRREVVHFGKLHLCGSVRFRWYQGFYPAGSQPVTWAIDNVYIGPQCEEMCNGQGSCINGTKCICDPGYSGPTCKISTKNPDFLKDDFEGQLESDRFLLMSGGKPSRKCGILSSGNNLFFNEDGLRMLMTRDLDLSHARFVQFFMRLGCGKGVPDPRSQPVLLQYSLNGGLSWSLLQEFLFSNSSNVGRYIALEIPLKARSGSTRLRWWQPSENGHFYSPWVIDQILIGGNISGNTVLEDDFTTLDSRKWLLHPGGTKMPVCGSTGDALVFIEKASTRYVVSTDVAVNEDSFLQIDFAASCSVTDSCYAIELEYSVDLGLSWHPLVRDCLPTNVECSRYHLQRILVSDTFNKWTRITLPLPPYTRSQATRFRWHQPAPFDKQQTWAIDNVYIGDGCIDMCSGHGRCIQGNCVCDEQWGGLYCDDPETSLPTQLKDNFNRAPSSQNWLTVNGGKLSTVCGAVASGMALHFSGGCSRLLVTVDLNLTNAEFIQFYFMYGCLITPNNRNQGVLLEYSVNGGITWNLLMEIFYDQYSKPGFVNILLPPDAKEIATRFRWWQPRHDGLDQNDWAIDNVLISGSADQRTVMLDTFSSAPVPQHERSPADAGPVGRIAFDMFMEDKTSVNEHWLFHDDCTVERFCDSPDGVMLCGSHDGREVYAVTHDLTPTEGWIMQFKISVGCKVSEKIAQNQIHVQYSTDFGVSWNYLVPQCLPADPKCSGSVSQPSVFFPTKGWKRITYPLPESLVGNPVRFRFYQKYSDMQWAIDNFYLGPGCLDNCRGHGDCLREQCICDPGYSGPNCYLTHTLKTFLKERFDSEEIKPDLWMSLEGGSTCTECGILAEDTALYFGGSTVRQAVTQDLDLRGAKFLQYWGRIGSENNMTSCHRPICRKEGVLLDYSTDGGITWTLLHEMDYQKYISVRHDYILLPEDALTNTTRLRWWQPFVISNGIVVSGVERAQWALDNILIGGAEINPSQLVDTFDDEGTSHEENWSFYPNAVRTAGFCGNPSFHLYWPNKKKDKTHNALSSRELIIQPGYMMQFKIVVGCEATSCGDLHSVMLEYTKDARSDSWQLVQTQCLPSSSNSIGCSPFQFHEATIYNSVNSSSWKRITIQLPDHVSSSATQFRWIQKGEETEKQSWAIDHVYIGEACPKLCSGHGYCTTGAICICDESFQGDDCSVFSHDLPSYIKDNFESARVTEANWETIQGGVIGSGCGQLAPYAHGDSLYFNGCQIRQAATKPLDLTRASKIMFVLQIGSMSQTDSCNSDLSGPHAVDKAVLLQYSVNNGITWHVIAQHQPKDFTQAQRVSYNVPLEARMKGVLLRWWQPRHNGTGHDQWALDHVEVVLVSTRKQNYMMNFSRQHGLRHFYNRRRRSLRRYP
UniProt Q8WZ73: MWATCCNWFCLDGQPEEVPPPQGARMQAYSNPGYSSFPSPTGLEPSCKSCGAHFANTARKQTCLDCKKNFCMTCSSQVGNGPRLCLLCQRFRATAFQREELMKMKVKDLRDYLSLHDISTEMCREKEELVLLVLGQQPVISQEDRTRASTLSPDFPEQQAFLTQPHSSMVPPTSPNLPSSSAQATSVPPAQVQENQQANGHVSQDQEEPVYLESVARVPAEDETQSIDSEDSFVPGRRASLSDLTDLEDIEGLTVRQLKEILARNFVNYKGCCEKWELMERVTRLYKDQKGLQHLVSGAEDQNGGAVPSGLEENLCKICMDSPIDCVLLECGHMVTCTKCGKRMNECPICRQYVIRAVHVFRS
UniProt Q9BTD8: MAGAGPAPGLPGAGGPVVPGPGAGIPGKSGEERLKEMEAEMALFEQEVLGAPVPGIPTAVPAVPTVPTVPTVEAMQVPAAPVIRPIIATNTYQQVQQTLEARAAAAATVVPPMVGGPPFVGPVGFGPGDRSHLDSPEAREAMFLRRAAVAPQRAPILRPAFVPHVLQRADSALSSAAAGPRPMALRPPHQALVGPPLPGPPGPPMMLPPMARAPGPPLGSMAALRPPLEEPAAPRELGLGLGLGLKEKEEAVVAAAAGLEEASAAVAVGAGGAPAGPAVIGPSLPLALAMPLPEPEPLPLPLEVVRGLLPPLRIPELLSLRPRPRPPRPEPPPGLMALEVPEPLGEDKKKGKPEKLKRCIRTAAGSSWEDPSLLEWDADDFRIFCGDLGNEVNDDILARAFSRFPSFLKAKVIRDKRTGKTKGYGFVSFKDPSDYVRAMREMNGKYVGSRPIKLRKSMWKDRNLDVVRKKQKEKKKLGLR
UniProt P51606: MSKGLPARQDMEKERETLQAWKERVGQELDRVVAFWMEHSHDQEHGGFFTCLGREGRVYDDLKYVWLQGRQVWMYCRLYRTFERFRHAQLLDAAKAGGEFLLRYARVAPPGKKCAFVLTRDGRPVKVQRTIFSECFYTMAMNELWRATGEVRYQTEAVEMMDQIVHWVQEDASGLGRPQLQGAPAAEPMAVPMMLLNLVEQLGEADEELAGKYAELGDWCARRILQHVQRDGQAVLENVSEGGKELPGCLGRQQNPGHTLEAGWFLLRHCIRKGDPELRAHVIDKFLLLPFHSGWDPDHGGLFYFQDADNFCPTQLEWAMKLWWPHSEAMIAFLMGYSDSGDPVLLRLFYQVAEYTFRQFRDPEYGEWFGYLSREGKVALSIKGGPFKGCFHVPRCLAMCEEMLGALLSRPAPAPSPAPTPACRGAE
UniProt O15541: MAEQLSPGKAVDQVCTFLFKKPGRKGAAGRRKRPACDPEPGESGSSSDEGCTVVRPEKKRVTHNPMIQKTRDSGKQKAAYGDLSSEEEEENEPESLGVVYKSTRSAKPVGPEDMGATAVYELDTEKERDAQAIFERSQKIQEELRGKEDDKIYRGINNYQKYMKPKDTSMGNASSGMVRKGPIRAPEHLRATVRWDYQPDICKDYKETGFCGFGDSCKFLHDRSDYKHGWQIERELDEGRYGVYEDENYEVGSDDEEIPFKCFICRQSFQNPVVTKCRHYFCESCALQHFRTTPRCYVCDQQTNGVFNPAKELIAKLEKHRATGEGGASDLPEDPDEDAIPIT
UniProt Q9P0P0: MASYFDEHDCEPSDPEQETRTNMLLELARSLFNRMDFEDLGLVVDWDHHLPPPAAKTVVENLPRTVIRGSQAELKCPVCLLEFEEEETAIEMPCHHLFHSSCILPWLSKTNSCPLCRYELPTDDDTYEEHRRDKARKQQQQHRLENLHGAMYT
UniProt Q6NUQ1: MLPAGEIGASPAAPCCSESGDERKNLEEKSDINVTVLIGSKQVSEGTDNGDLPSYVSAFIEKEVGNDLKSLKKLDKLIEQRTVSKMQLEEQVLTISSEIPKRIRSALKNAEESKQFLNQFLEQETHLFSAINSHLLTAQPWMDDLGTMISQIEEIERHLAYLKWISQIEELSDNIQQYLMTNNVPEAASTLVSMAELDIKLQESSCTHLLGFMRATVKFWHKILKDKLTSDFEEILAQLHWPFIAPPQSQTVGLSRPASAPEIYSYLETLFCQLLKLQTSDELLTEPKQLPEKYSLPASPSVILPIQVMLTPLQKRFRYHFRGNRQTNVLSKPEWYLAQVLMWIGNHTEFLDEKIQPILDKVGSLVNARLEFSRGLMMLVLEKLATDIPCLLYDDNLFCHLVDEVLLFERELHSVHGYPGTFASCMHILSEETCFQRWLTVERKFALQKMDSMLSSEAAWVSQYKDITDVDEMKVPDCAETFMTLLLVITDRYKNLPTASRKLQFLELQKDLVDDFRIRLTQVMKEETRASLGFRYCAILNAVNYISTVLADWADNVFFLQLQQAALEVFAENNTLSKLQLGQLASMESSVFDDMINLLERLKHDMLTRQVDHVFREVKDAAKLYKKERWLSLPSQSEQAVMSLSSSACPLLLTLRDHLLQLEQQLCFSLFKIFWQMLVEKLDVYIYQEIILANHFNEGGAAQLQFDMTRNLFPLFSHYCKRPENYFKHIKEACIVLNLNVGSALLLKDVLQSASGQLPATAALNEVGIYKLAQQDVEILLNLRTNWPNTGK
UniProt Q9NPQ8: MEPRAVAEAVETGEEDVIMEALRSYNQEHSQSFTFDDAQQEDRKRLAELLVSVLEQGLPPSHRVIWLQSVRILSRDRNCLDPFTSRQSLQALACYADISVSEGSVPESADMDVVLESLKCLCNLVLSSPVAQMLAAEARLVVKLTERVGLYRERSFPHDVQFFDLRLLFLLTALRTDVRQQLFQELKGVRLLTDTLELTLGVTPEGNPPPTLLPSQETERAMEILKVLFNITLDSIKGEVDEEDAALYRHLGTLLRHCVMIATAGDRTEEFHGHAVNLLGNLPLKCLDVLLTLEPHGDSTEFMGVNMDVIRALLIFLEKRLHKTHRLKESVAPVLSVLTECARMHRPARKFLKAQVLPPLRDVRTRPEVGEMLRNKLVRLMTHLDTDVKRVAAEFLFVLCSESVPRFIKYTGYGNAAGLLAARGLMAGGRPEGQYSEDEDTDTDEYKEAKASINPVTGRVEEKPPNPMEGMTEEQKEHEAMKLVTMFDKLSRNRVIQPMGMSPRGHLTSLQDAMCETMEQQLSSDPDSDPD

How the values were obtained:
Experiment in all cases: log2 fold change, soluble protein after heating vs DMSO (PISA); higher = thermal stabilisation; K562 cells, 10 uM, 30 min; active = over 0.2 and 3.5 SD of the protein, either way, in both replicates (recomputed)
IRAK-1-4 Inhibitor I = compound: C1COCCN1CCN2C3=CC=CC=C3N=C2NC(=O)C4=CC(=CC=C4)[N+](=O)[O-] [IRAK-1-4 Inhibitor I]
How it was run: (§1)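 Thermal stability values are relative to control samples and come from duplicates. They are expressed as log2 fold changes. For measurement, K562 cells (2×10^6 cells/mL) received 10 μM compound for 30 min, and aliquots were heated for 3 min over 48°C-58°C, pooled, and extracted at 4°C in PBS with 0.5% NP-40. Soluble protein, the supernatant after 21,000xg for 90 min, was quantified by TMTpro 16plex LC-MS/MS with equalised channel sums.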

ibrutinib = compound: C=CC(=O)N1CCC[C@@H](n2nc(-c3ccc(Oc4ccccc4)cc3)c3c(N)ncnc32)C1 [ibrutinib]
How it was run: as §1

[1] = compound: CC(=O)c1cnc2ccc(-c3cc(Cl)c(O)c(Cl)c3)nc2c1N[C@H]1CC[C@H](CN(C)C)CC1
How it was run: as §1

ralimetinib = compound: CC(C)(C)Cn1c(N)nc2ccc(-c3[nH]c(C(C)(C)C)nc3-c3ccc(F)cc3)nc21 [ralimetinib]
How it was run: as §1

[2] = compound: CC(C)(O)CC(=O)NCCn1ccc2ncnc(Nc3ccc(Oc4cccc(C(F)(F)F)c4)c(Cl)c3)c21
How it was run: as §1

[3] = compound: CC(C)C1=C2N=C(C=C(N2N=C1)NCC3=CC=CC=C3)NCCCCCCN
How it was run: as §1

[4] = compound: CC(C)C[C@@H](C=O)NC(=O)[C@H](CC(C)C)NC(=O)[C@H](CC(C)C)NC(=O)OCc1ccccc1
How it was run: as §1

pinometostat = compound: CC(C)N(C[C@H]1O[C@@H](n2cnc3c(N)ncnc32)[C@H](O)[C@@H]1O)[C@H]1C[C@@H](CCc2nc3cc(C(C)(C)C)ccc3[nH]2)C1 [pinometostat]
How it was run: as §1

[5] = compound: CC1=C(C(CC(=O)N1)C2=CC=C(C=C2)C(F)(F)F)C(=O)NC3=C(C=C4C(=C3)C=NN4)F
How it was run: as §1

[6] = compound: CC1=C(C2=C(C=C1)C(=O)C3=CC=CC=C3N2CCCN)C
How it was run: as §1

[7] = compound: CC1=C(C=C(C=C1)NC(=O)C2=CC(=CC=C2)C(C)(C)C#N)NC3=CC4=C(C=C3)N=CN(C4=O)C
How it was run: as §1

[8] = compound: CC1=C(C=C(C=C1)NC(=O)C2=CC(=CC=C2)N(C)C)NC(=O)C3=CC=C(C=C3)O
How it was run: as §1

[9] = compound: CC1=CC=C(C=C1)SC2=C3C=C(SC3=CN=C2)C(=O)N
How it was run: as §1

[10] = compound: CC1=NC(=CC=C1)C2=C(N=C(N2)C(C)(C)C)C3=CC4=NC=CN=C4C=C3
How it was run: as §1

Nexturastat A = compound: CCCCN(Cc1ccc(C(=O)NO)cc1)C(=O)Nc1ccccc1 [Nexturastat A]
How it was run: as §1

vemurafenib = compound: CCCS(=O)(=O)Nc1ccc(F)c(C(=O)c2c[nH]c3ncc(-c4ccc(Cl)cc4)cc23)c1F [vemurafenib]
How it was run: as §1

[11] = compound: CCCS(=O)(=O)Nc1ccc(F)c(C(=O)c2c[nH]c3ncc(Cl)cc23)c1F
How it was run: as §1

[12] = compound: CCCc1cc(C)[nH]c(=O)c1CNC(=O)c1cc(-c2ccnc(N3CCN(C)CC3)c2)cc2c1cnn2C(C)C
How it was run: as §1

givinostat = compound: CCN(CC)Cc1ccc2cc(COC(=O)Nc3ccc(C(=O)NO)cc3)ccc2c1 [givinostat]
How it was run: as §1

barasertib = compound: CCN(CCCOc1ccc2c(Nc3cc(CC(=O)Nc4cccc(F)c4)[nH]n3)ncnc2c1)CCOP(=O)(O)O [barasertib]
How it was run: as §1

Measured: log2 fold change

RELN (UniProt P78509)
inactive: IRAK-1-4 Inhibitor I -0.096 | ibrutinib 0.062 | [1] -0.038 | ralimetinib 0.059 | [2] 0.005 | [3] -0.027 | [4] 0.006 | pinometostat 0.016 | [5] -0.063 | [6] -0.062 | [7] -0.024 | [8] 0.019 | [9] -0.038 | [10] -0.077 | Nexturastat A 0.095 | vemurafenib -0.092 | [11] -0.045 | [12] -0.03 | givinostat -0.009 | barasertib 0.01

RFFL (UniProt Q8WZ73)
inactive: IRAK-1-4 Inhibitor I 0.049 | ibrutinib 0.06 | [1] 0.123 | ralimetinib -0.054 | [2] -0.103 | [3] 0.102 | [4] 0.049 | pinometostat -0.08 | [5] -0.041 | [6] 0.108 | [7] 0.173 | [8] 0.048 | [9] 0.038 | [10] -0.102 | Nexturastat A 0.274 | vemurafenib 0.17 | [11] -0.267 | [12] -0.071 | givinostat 0.032 | barasertib -0.132

RFC2 (UniProt P35250)
inactive: IRAK-1-4 Inhibitor I 0.02 | ibrutinib 0.001 | [1] -0.018 | ralimetinib -0.026 | [2] -0.025 | [3] -0.022 | [4] 0 | pinometostat 0.002 | [5] 0.027 | [6] 0.003 | [7] 0.001 | [8] 0.016 | [9] 0.017 | [10] 0.04 | Nexturastat A -0.1 | vemurafenib -0.007 | [11] 0.033 | [12] -0.007 | givinostat -0.016 | barasertib 0.01

RBM42 (UniProt Q9BTD8)
inactive: IRAK-1-4 Inhibitor I -0.048 | ibrutinib 0.05 | [1] 0.052 | ralimetinib 0.129 | [2] 0.006 | [3] -0.032 | [4] 0.071 | pinometostat 0.022 | [5] 0.039 | [6] -0.174 | [7] -0.006 | [8] 0.011 | [9] -0.075 | [10] -0.016 | Nexturastat A 0.092 | vemurafenib -0.036 | [11] 0.012 | [12] 0.08 | givinostat 0.064 | barasertib -0.091

RFC4 (UniProt P35249)
inactive: IRAK-1-4 Inhibitor I 0.069 | ibrutinib 0.011 | [1] 0.024 | ralimetinib -0.015 | [2] -0.046 | [3] -0.039 | [4] 0 | pinometostat -0.014 | [5] 0.047 | [6] 0 | [7] 0.006 | [8] 0.026 | [9] 0.029 | [10] 0.042 | Nexturastat A -0.045 | vemurafenib -0.01 | [11] 0.037 | [12] -0.029 | givinostat -0.028 | barasertib 0.008

2 records drawn at random from the list so far:
RFC2 (UniProt P35250)
inactive: IRAK-1-4 Inhibitor I 0.02 | ibrutinib 0.001 | [1] -0.018 | ralimetinib -0.026 | [2] -0.025 | [3] -0.022 | [4] 0 | pinometostat 0.002 | [5] 0.027 | [6] 0.003 | [7] 0.001 | [8] 0.016 | [9] 0.017 | [10] 0.04 | Nexturastat A -0.1 | vemurafenib -0.007 | [11] 0.033 | [12] -0.007 | givinostat -0.016 | barasertib 0.01

RELN (UniProt P78509)
inactive: IRAK-1-4 Inhibitor I -0.096 | ibrutinib 0.062 | [1] -0.038 | ralimetinib 0.059 | [2] 0.005 | [3] -0.027 | [4] 0.006 | pinometostat 0.016 | [5] -0.063 | [6] -0.062 | [7] -0.024 | [8] 0.019 | [9] -0.038 | [10] -0.077 | Nexturastat A 0.095 | vemurafenib -0.092 | [11] -0.045 | [12] -0.03 | givinostat -0.009 | barasertib 0.01

Remaining list, next part:

RMDN3 (UniProt Q96TC7)
inactive: IRAK-1-4 Inhibitor I -0.048 | ibrutinib -0.013 | [1] -0.076 | ralimetinib 0.005 | [2] 0.033 | [3] -0.084 | [4] 0.027 | pinometostat -0.009 | [5] -0.012 | [6] 0.051 | [7] -0.006 | [8] -0.034 | [9] 0.01 | [10] 0.065 | Nexturastat A -0.065 | vemurafenib -0.01 | [11] 0.023 | [12] 0.009 | givinostat 0.068 | barasertib 0.024

RENBP (UniProt P51606)
inactive: IRAK-1-4 Inhibitor I -0.049 | ibrutinib -0.002 | [1] -0.023 | ralimetinib -0.108 | [2] 0.022 | [3] 0.058 | [4] -0.017 | pinometostat 0.007 | [5] 0.001 | [6] -0.017 | [7] -0.029 | [8] -0.012 | [9] 0.022 | [10] -0.012 | Nexturastat A -0.117 | vemurafenib -0.006 | [11] -0.003 | [12] -0.033 | givinostat 0.004 | barasertib 0.015

REPS1 (UniProt Q96D71)
inactive: IRAK-1-4 Inhibitor I 0.011 | ibrutinib 0.045 | [1] -0.117 | ralimetinib 0.154 | [2] -0.009 | [3] -0.083 | [4] 0.082 | pinometostat 0.221 | [5] -0.063 | [6] 0.001 | [7] 0.026 | [8] 0.054 | [9] 0.277 | [10] -0.046 | Nexturastat A 0.183 | vemurafenib -0.049 | [11] -0.28 | givinostat 0.031 | barasertib -0.154

RNF113A (UniProt O15541)
inactive: IRAK-1-4 Inhibitor I 0.031 | ibrutinib 0.029 | [1] -0.009 | ralimetinib -0.079 | [2] 0.024 | [3] 0.072 | [4] 0.027 | pinometostat 0.001 | [5] 0.029 | [6] 0 | [7] -0.054 | [8] 0.015 | [9] 0.064 | [10] -0.015 | Nexturastat A -0.068 | vemurafenib -0.058 | [11] -0.016 | [12] -0.018 | givinostat -0.004 | barasertib -0.015

RNF181 (UniProt Q9P0P0)
inactive: IRAK-1-4 Inhibitor I 0.034 | ibrutinib 0.023 | [1] -0.029 | ralimetinib -0.024 | [2] 0.01 | [3] 0.107 | [4] 0.069 | pinometostat -0.009 | [5] -0.001 | [6] 0.04 | [7] -0.054 | [8] 0.034 | [9] 0.046 | [10] -0.016 | Nexturastat A 0.013 | vemurafenib -0.017 | [11] -0.008 | [12] 0.036 | givinostat -0.057 | barasertib 0.037

RINT1 (UniProt Q6NUQ1)
inactive: IRAK-1-4 Inhibitor I -0.123 | ibrutinib -0.208 | [1] 0 | ralimetinib 0.183 | [2] 0.103 | [3] -0.151 | [4] 0.028 | pinometostat 0.226 | [5] 0.059 | [6] 0.017 | [8] 0.016 | [9] -0.023 | [10] -0.062 | Nexturastat A 0.164 | vemurafenib -0.013 | [11] 0.068 | [12] 0.281 | givinostat 0.14 | barasertib -0.138

RIC8A isoform 3 (UniProt Q9NPQ8)
inactive: IRAK-1-4 Inhibitor I -0.073 | ibrutinib -0.051 | [1] -0.193 | ralimetinib 0.06 | [2] -0.052 | [3] -0.354 | [4] 0.066 | pinometostat 0.166 | [6] -0.132 | [7] 0.074 | [8] -0.051 | [9] 0.024 | [10] 0.023 | Nexturastat A 0.198 | vemurafenib 0.028 | [11] 0.085 | [12] 0.111 | givinostat 0.028 | barasertib 0.073

RFC5 (UniProt P40937)
inactive: IRAK-1-4 Inhibitor I 0.022 | ibrutinib 0.012 | [1] -0.034 | ralimetinib -0.028 | [2] -0.038 | [3] -0.046 | [4] -0.011 | pinometostat -0.013 | [5] 0.026 | [6] -0.002 | [7] -0.041 | [8] 0.027 | [9] 0.045 | [10] 0.033 | Nexturastat A -0.085 | vemurafenib 0 | [11] 0.013 | [12] -0.015 | givinostat 0.022 | barasertib 0.029

RIPK1 (UniProt Q13546)
inactive: IRAK-1-4 Inhibitor I -0.104 | ibrutinib -0.081 | [1] -0.201 | ralimetinib 0.195 | [2] -0.023 | [3] -0.23 | [4] 0.14 | pinometostat 0.123 | [6] 0.056 | [7] 0.101 | [8] -0.043 | [9] -0.002 | [10] -0.178 | Nexturastat A 0.109 | vemurafenib 0.054 | [11] 0.135 | [12] 0.092 | givinostat 0.094 | barasertib 0.085

RIC1 (UniProt Q4ADV7)
inactive: IRAK-1-4 Inhibitor I -0.086 | ibrutinib -0.138 | [1] 0.022 | ralimetinib 0.009 | [2] -0.205 | [3] -0.075 | [4] -0.051 | pinometostat 0.059 | [5] -0.171 | [7] 0.046 | [8] 0.023 | [9] 0.065 | [10] 0.076 | Nexturastat A 0.094 | vemurafenib -0.061 | [11] 0.031 | [12] -0.194 | givinostat 0.116 | barasertib 0.144

RCHY1 (UniProt Q96PM5)
inactive: IRAK-1-4 Inhibitor I 0.105 | ibrutinib 0.08 | [1] 0.047 | ralimetinib 0.025 | [2] 0.009 | [3] 0.134 | [4] 0.008 | pinometostat -0.034 | [5] 0.07 | [6] -0.043 | [7] 0.015 | [8] -0.065 | [9] 0.001 | [10] 0.083 | Nexturastat A -0.052 | vemurafenib -0.055 | [11] 0.023 | [12] -0.002 | givinostat -0.062 | barasertib 0.033
